Data on 26 compounds can be found in PubChem BioAssay AID256 (DTP/NCI, 2004).

The test system of the experiment is CD2F1 mice, L1210 leukemia ip, survival T/C. The experiment in a line: NCI In Vivo Anticancer Drug Screen. Data for tumor model L1210 Leukemia (intraperitoneal) in CD2F1 (CDF1) mice. The note with it: higher T/C = longer survival. A digest of the protocol:
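Vehicle-treated tumor-bearing mice served as controls (C) for compound-treated mice (T). Reported figure is T divided by C.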

Setting [1] is: T/C endpoint: mean survival time, dose: 200.0 mg/kg/injection, schedule: Q04DX003 (ip), vehicle: saline.
Where [2] appears, read: T/C endpoint: mean survival time, dose: 100.0 mg/kg/injection, schedule: Q04DX003 (ip), vehicle: saline with Tween-80.
The mark [3] stands for this setting: T/C endpoint: mean survival time, dose: 200.0 mg/kg/injection, schedule: Q04DX003 (ip), vehicle: saline with Tween-80.
Where [4] appears, read: T/C endpoint: mean survival time, dose: 400.0 mg/kg/injection, schedule: Q04DX003 (ip), vehicle: saline with Tween-80.
Setting [5] is: T/C endpoint: mean survival time, dose: 200.0 mg/kg/injection, schedule: Q01DX001 (ip), vehicle: saline with Tween-80.
Where [6] appears, read: T/C endpoint: mean survival time, dose: 400.0 mg/kg/injection, schedule: Q01DX001 (ip), vehicle: saline with Tween-80.
Where [7] appears, read: T/C endpoint: median survival time, dose: 200.0 mg/kg/injection, schedule: Q01DX009 (ip), vehicle: Klucel (hydroxypropylcellulose) (HPC).
The mark [8] stands for this setting: T/C endpoint: mean survival time, dose: 300.0 mg/kg/injection, schedule: Q01DX001 (ip), vehicle: saline.
Setting [9] is: T/C endpoint: mean survival time, dose: 50.0 mg/kg/injection, schedule: Q01DX009 (ip), vehicle: Klucel (hydroxypropylcellulose) (HPC).
[10] abbreviates: T/C endpoint: mean survival time, dose: 200.0 mg/kg/injection, schedule: Q01DX009 (ip), vehicle: saline with Tween-80.
Setting [11] is: T/C endpoint: mean survival time, dose: 400.0 mg/kg/injection, schedule: Q01DX009 (ip), vehicle: saline with Tween-80.

Structures are written as SMILES. The list shows only some results of the screen, not a fair sample: it gathers tests that were run many times, whatever their T/C, doses with no T/C, and many T/C values between a quarter and a half above the control. Other doses and runs of a compound stand elsewhere. T/C gives the treated animals as a percentage of the vehicle group. Some doses have a count of surviving animals in place of a T/C: the source holds a T/C of zero for them, seemingly a mark for toxic or unscored doses. Some doses without a T/C left all or most animals alive at the check, yet need not have been tolerated: the source hardly ever lists a survival T/C far under the control, and the zero likely stands for such cases as well. Counts of survivors are from the toxicity check (mostly the fifth day) where no day follows; animals may have died later. Schedule codes are those of the source, taken here to give the interval after Q, in days (D) or hours (H), and the number of doses after X. Marks such as (2×) stand for listed records that agree. Some doses were run more than once; the results are listed from low to high. For survival time, the PubChem record calls one and a half times the control and up active, and a quarter to a half above the control has no call in these data; cut-offs in other NCI protocols can differ. Some T/C values carry the count of animals alive at the toxicity check (mostly the fifth day); where none is given, no animal had died by that day.

With `O=CC(CO)CC(C=O)n1cnc2c(=O)[nH]cnc21` (stereo unspecified), the T/C (T/C endpoint: mean survival time, dose: 89.0 mg/kg/injection, schedule: Q04DX003 (ip), vehicle: saline) is 125 % of control; the T/C (T/C endpoint: mean survival time, dose: 133.0 mg/kg/injection, schedule: Q01DX009 (ip), vehicle: saline) is 136 % of control; the T/C (T/C endpoint: mean survival time, dose: 133.0 mg/kg/injection, schedule: Q04DX003 (ip), vehicle: saline) was 131 % of control; the T/C (T/C endpoint: mean survival time, dose: 200.0 mg/kg/injection, schedule: Q01DX009 (ip), vehicle: saline) is 141 % of control; the T/C under setting [1] is 141 % of control; the T/C (T/C endpoint: median survival time, dose: 37.0 mg/kg/injection, schedule: Q01DX009 (ip), vehicle: saline) is 133 % of control. Further, the T/C is, setting by setting: (T/C endpoint: median survival time, dose: 37.5 mg/kg/injection, schedule: Q01DX009 (ip), vehicle: saline) 125 % of control; (T/C endpoint: median survival time, dose: 75.0 mg/kg/injection, schedule: Q01DX009 (ip), vehicle: saline) 108, 131, 133, 148 % of control; (T/C endpoint: median survival time, dose: 150.0 mg/kg/injection, schedule: Q01DX009 (ip), vehicle: saline) 124, 150 (2×), 154 % of control; (T/C endpoint: median survival time, dose: 300.0 mg/kg/injection, schedule: Q01DX009 (ip), vehicle: saline) 127, 170, 172, 222 % of control. Also, the survivor count (T/C endpoint: median survival time, dose: 600.0 mg/kg/injection, schedule: Q01DX009 (ip), vehicle: saline) is 0 of 6, 2 of 6, 3 of 6, 5 of 6.
Take `c1ccc(C[n+]2cccc3ccccc32)cc1`: the survivor count was 2 of 6 under setting [2], 0 of 6 under setting [3] and 0 of 6 under setting [4].
`O=C(C=C(C(F)(F)F)C(F)(F)F)c1cccc(S(=O)(=O)F)c1`: the survivor count is, setting by setting: under setting [5], 3 of 6; under setting [6], 0 of 6.
For the compound `Cn1c2ccccc2c2ccc3c(c21)C(=O)C=CC3=O`, the survivor count is 2 of 6 (T/C endpoint: median survival time, dose: 100.0 mg/kg/injection, schedule: Q01DX009 (ip), vehicle: Klucel (hydroxypropylcellulose) (HPC)) and 0 of 6 under setting [7].
Take `Cc1cc(NC(=S)SCc2ccc3c(c2)OCO3)ccc1Cl`: the T/C runs as follows: (T/C endpoint: median survival time, dose: 100.0 mg/kg/injection, schedule: Q01DX009 (ip), vehicle: Klucel (hydroxypropylcellulose) (HPC), evaluated on day 20) 126 % of control; (T/C endpoint: median survival time, dose: 100.0 mg/kg/injection, schedule: Q01DX009 (ip), vehicle: Klucel (hydroxypropylcellulose) (HPC), evaluated on day 30) 137 % of control. The survivor count under setting [7] is 4 of 6 (2×) and the survivor count (T/C endpoint: median survival time, dose: 400.0 mg/kg/injection, schedule: Q01DX009 (ip), vehicle: Klucel (hydroxypropylcellulose) (HPC)) is reported as 1 of 6.
Consider `Nc1c2ccccc2c[n+]2ccccc12`, for which the survivor count under setting [1] is on record as 0 of 6 and the survivor count (T/C endpoint: mean survival time, dose: 400.0 mg/kg/injection, schedule: Q04DX003 (ip), vehicle: saline) is recorded as 1 of 6.
For `C#CC[N+](CC)(CC)CCNC(=O)CCCCCCCCCCCCCCC`, the survivor count is, setting by setting: (T/C endpoint: mean survival time, dose: 150.0 mg/kg/injection, schedule: Q01DX001 (ip), vehicle: saline) 1 of 6; under setting [8], 0 of 6.
For the compound `CN=C(NC)N/N=C(/c1ccc(Br)cc1)c1ccc(C(F)(F)F)cc1`, the survivor count reads like this: (T/C endpoint: mean survival time, dose: 50.0 mg/kg/injection, schedule: Q04DX002 (ip), vehicle: saline with Tween-80) 3 of 3; under setting [2], 3 of 6; under setting [3], 3 of 6; (T/C endpoint: mean survival time, dose: 400.0 mg/kg/injection, schedule: Q01DX001 (ip), vehicle: saline sonified) 0 of 6.
`CCOC(=O)C1(C(=O)OCC)CCC(O)N1C(=O)Cc1ccccc1[N+](=O)[O-]` (stereo unspecified): the T/C under setting [9] was 129 % of control [2 of 3 alive].
Regarding `COc1cc2c3cc1Oc1c(OC)c(OC)cc4c1C(Cc1ccc(O)c(c1)Oc1ccc(cc1)CC3N(C)CC2)CN(C)C4` (stereo unspecified), the survivor count under setting [4] is listed as 0 of 6.
Regarding `CCC[n+]1c(C)oc2ccc(-c3ccccc3)cc21`, the survivor count under setting [4] is reported as 3 of 6.
As for `OCCC(c1ccccc1)C1CCCCN1` (stereo unspecified), the survivor count under setting [8] is 1 of 6.
Regarding `O=C(O)C(S(=O)(=O)O)S(=O)(=O)O`, the survivor count is, setting by setting: (T/C endpoint: mean survival time, dose: 12.5 mg/kg/injection, schedule: Q01DX001 (ip), vehicle: saline with Tween-80) 3 of 3; (T/C endpoint: mean survival time, dose: 25.0 mg/kg/injection, schedule: Q01DX001 (ip), vehicle: saline with Tween-80) 3 of 3; (T/C endpoint: mean survival time, dose: 50.0 mg/kg/injection, schedule: Q01DX001 (ip), vehicle: saline with Tween-80) 2 of 3; (T/C endpoint: mean survival time, dose: 100.0 mg/kg/injection, schedule: Q01DX001 (ip), vehicle: saline with Tween-80) 1 of 3; under setting [5], 2 of 3; under setting [6], 0 of 3.
Take `Nc1cc(N)c2cccnc2c1O`: the survivor count (T/C endpoint: mean survival time, dose: 25.0 mg/kg/injection, schedule: Q01DX009 (ip), vehicle: saline) was 0 of 6.
For the compound `COS(=O)(=O)c1ccc(Cl)c([N+](=O)[O-])c1`, the survivor count under setting [2] is reported as 3 of 6, the survivor count under setting [3] is reported as 0 of 6 and the survivor count under setting [4] is 0 of 6.
`O=C(C=C(C(F)(F)F)C(F)(F)F)c1ccc(Cl)c2ccccc12`: the survivor count is, setting by setting: under setting [3], 6 of 6; under setting [4], 4 of 6.
Consider `O=C1C=CC(=O)C1`, for which the survivor count (T/C endpoint: mean survival time, dose: 10.0 mg/kg/injection, schedule: Q04DX002 (ip), vehicle: saline with Tween-80) is on record as 3 of 3 and the survivor count (T/C endpoint: mean survival time, dose: 20.0 mg/kg/injection, schedule: Q04DX002 (ip), vehicle: saline with Tween-80) is 1 of 3.
Turning to `c1ccc(CNCCNCc2ccccc2)cc1`, the survivor count is, setting by setting: under setting [10], 2 of 6; under setting [3], 0 of 6; under setting [11], 0 of 6; under setting [4], 0 of 6.
As for `CCOC(=O)C1(C#N)C(=O)CSC1=Nc1ccccc1Cl` (stereo unspecified), the survivor count under setting [10] is reported as 3 of 3.
With `C=CCNC(=O)c1ccc[n+](CC(=O)Nc2ccccc2)c1`, the survivor count by setting is: under setting [3], 3 of 6; under setting [4], 0 of 6.
Turning to `COc1ccc(NC(=O)NCCCl)cc1`, the survivor count under setting [6] is given as 1 of 3.
As for `COc1cccc(N=Nc2c(N)nc(N)nc2N)c1`, the survivor count by setting is: (T/C endpoint: mean survival time, dose: 100.0 mg/kg/injection, schedule: Q01DX009 (ip), vehicle: saline with Tween-80) 6 of 6; under setting [10], 3 of 6.
Take `CCOC(=O)N1C(=O)C2C3CCC(O3)C2C1=O` (stereo unspecified): the survivor count is, setting by setting: (T/C endpoint: mean survival time, dose: 100.0 mg/kg/injection, schedule: Q04DX002 (ip), vehicle: saline with Tween-80) 0 of 3; (T/C endpoint: mean survival time, dose: 200.0 mg/kg/injection, schedule: Q04DX002 (ip), vehicle: saline with Tween-80) 0 of 3; (T/C endpoint: mean survival time, dose: 400.0 mg/kg/injection, schedule: Q04DX002 (ip), vehicle: saline with Tween-80) 0 of 3.
On to `NC(=S)N/N=C\c1ncccc1OCc1cccc(N)c1`, for which the T/C runs as follows: (T/C endpoint: mean survival time, dose: 200.0 mg/kg/injection, schedule: Q01DX009 (ip), vehicle: distilled water + Tween-80) 133 % of control; (T/C endpoint: mean survival time, dose: 400.0 mg/kg/injection, schedule: Q01DX009 (ip), vehicle: distilled water + Tween-80) 127 % of control. The survivor count under setting [11] was 6 of 6.
On to `COc1ccc(C2OC(=O)c3cccnc32)cc1OC` (stereo unspecified), for which the survivor count is, setting by setting: (T/C endpoint: mean survival time, dose: 25.0 mg/kg/injection, schedule: Q01DX009 (ip), vehicle: other) 6 of 6; (T/C endpoint: mean survival time, dose: 100.0 mg/kg/injection, schedule: Q01DX009 (ip), vehicle: other) 6 of 6.
With `NC(=O)c1ncn(C2OC(CO)C(O)C2O)c1O` (stereo unspecified), the T/C is 125 and 125 % of control [5 of 6 alive] (T/C endpoint: mean survival time, dose: 12.5 mg/kg/injection, schedule: Q01DX009 (ip), vehicle: Klucel (hydroxypropylcellulose) (HPC)); 130 % of control [5 of 6 alive] (T/C endpoint: mean survival time, dose: 25.0 mg/kg/injection, schedule: Q01DX009 (ip), vehicle: Klucel (hydroxypropylcellulose) (HPC)); 131, 133, 134 % of control under setting [9]; 134, 136, 139 % of control (T/C endpoint: mean survival time, dose: 100.0 mg/kg/injection, schedule: Q01DX009 (ip), vehicle: Klucel (hydroxypropylcellulose) (HPC)); 129 % of control (T/C endpoint: mean survival time, dose: 200.0 mg/kg/injection, schedule: Q01DX009 (ip), vehicle: Klucel (hydroxypropylcellulose) (HPC)).
